From doi:10.1101/2025.01.15.633301
These are yes or no findings as the source states them, for the method shown. In cells and extracts the contact can be indirect. Some entries that bind do so weakly or less than the wild type. Sequences can lack the tags named with a protein.

Target: myc-progerin (UniProt P02545)
Experiment: co-IP

binding: binds
B1: HA-SUN1 (protein, UniProt Q9D666 1-913)
chain: MDFSRLHTYTPPQCVPENTGYTYALSSSYSSDALDFETEHKLEPVFDSPRMSRRSLRLVTTASYSSGDSQAIDSHISTSRATPAKGRETRTVKQRRSASKPAFSINHLSGKGLSSSTSHDSSCSLRSATVLRHPVLDESLIREQTKVDHFWGLDDDGDLKGGNKAATQGNGELAAEVASSNGYTCRDCRMLSARTDALTAHSAIHGTTSRVYSRDRTLKPRGVSFYLDRTLWLAKSTSSSFASFIVQLFQVVLMKLNFETYKLKGYESRAYESQSYETKSHESEAHLGHCGRMTAGELSRVDGESLCDDCKGKKHLEIHTATHSQLPQPHRVAGAMGRLCIYTGDLLVQALRRTRAAGWSVAEAVWSVLWLAVSAPGKAASGTFWWLGSGWYQFVTLISWLNVFLLTRCLRNICKVFVLLLPLLLLLGAGVSLWGQGNFFSLLPVLNWTAMQPTQRVDDSKGMHRPGPLPPSPPPKVDHKASQWPQESDMGQKVASLSAQCHNHDERLAELTVLLQKLQIRVDQVDDGREGLSLWVKNVVGQHLQEMGTIEPPDAKTDFMTFHHDHEVRLSNLEDVLRKLTEKSEAIQKELEETKLKAGSRDEEQPLLDRVQHLELELNLLKSQLSDWQHLKTSCEQAGARIQETVQLMFSEDQQGGSLEWLLEKLSSRFVSKDELQVLLHDLELKLLQNITHHITVTGQAPTSEAIVSAVNQAGISGITEAQAHIIVNNALKLYSQDKTGMVDFALESGGGSILSTRCSETYETKTALLSLFGVPLWYFSQSPRVVIQPDIYPGNCWAFKGSQGYLVVRLSMKIYPTTFTMEHIPKTLSPTGNISSAPKDFAVYGLETEYQEEGQPLGRFTYDQEGDSLQMFHTLERPDQAFQIVELRVLSNWGHPEYTCLYRFRVHGEPIQ
